For two molecules, binding results are on record in patent publication US20160339110A1.

Test [1] addresses Recombinant ectodomain of human CD32a (human). The test can be described thus: ELISA, plate coated with 5 ug/ml ectodomain of CD32a, detection with HRP-conjugated protein L. In general terms: An ELISA detects its analyte on a solid surface through an enzyme-linked reagent.
Test [2] has the same target. The experiment in a line: ELISA.

Results are given in words; binding and its absence hold for the method and conditions named. A result given as binding can be weak or reduced; the word gives no strength.

B1: scFv of mAb specific for ectodomain of CD32a (VL and VH from MDE-8) (scFv)
scFv: AIQLTQSPSSLSASVGDRVTITCRASQGINSALAWYQQKPGKAPKLLIYDASSLESGVPSRFSGSGSGTDFTLTISSLQPEDFATYYCQQFNSYPHTFGQGTKLEIKRGSTSGSGKPGSGEGSTKGQVHLVESGGGVVQPGRSLRLSCAASGFTFSSYGMHWVRQAPGKGLEWVAVIWYDGSNYYYTDSVKGRFTISRDNSKNTLYLQMNSLRAEDTAVYYCARDLGAAASDYWGQGTLVTVSSGGGGSGGGGSC
As for B1, the binding entry in test [1] and in test [2] was “binds” each time.

B2: TCO-conjugated scFv specific for CD32a (scFv)
scFv: AIQLTQSPSSLSASVGDRVTITCRASQGINSALAWYQQKPGKAPKLLIYDASSLESGVPSRFSGSGSGTDFTLTISSLQPEDFATYYCQQFNSYPHTFGQGTKLEIKRGSTSGSGKPGSGEGSTKGQVHLVESGGGVVQPGRSLRLSCAASGFTFSSYGMHWVRQAPGKGLEWVAVIWYDGSNYYYTDSVKGRFTISRDNSKNTLYLQMNSLRAEDTAVYYCARDLGAAASDYWGQGTLVTVSSGGGGSGGGGSC
modifications: C-terminal cysteine conjugated with Mal-PEG3-TCO
In the case of B2, the binding result in test [2] is listed as “binds”.
